Measured values as given in article PMC2930004.
No constants are given. Whether binding was seen depends on the method and setting. In cells and extracts the contact can be indirect. Some results given as binding are weak or reduced against the parent protein; the word gives no strength. Where a sequence is shown, tags or fusion partners need not be part of it.

How the values were obtained:
[1] = biological target: T1, BAR1-YFP (C-terminal YFP fusion of the APPL1 minimal BAR domain, residues 18-226) (human) (UniProt Q9UKG1); assay: FRET or BRET; sensitized emission (NFRET) from pre-bleach emission spectra; CFP donor and YFP acceptor co-expressed in DLD-1 cells, fixed with 2% formaldehyde 24 h after transfection; confocal microscope with spectral detector
T1 sequence: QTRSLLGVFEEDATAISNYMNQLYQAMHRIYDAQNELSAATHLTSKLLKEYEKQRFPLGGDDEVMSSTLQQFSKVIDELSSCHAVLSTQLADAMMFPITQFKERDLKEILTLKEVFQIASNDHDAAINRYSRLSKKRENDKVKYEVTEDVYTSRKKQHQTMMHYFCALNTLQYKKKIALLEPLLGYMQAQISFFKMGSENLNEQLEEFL

[2] = biological target: T1, BAR1-YFP (C-terminal YFP fusion of the APPL1 minimal BAR domain, residues 18-226) (human); assay: FRET or BRET; comparison of pre-bleach and post-bleach emission spectra (lambda mode, same detector gain) in the bleached region; CFP donor and YFP acceptor co-expressed in DLD-1 cells, fixed
[3] = biological target: T1, BAR1-YFP (C-terminal YFP fusion of the APPL1 minimal BAR domain, residues 18-226) (human); assay: FRET or BRET; standard acceptor photobleaching (pre-bleach against final image after 19 bleach exposures, FRET efficiency %); CFP donor and YFP acceptor co-expressed in DLD-1 cells, fixed
[4] = biological target: T1, BAR1-YFP (C-terminal YFP fusion of the APPL1 minimal BAR domain, residues 18-226) (human); assay: FRET or BRET; sequential acceptor photobleaching (20 images, linear regression to 100% YFP bleached); CFP donor and YFP acceptor co-expressed in DLD-1 cells, fixed
[5] = biological target: T2, BAR2-YFP (C-terminal YFP fusion of the APPL2 minimal BAR domain, residues 18-225) (human) (UniProt Q8NEU8); assay: FRET or BRET; sensitized emission (NFRET) from pre-bleach emission spectra; CFP donor and YFP acceptor co-expressed in DLD-1 cells, fixed with 2% formaldehyde 24 h after transfection; confocal microscope with spectral detector
T2 sequence: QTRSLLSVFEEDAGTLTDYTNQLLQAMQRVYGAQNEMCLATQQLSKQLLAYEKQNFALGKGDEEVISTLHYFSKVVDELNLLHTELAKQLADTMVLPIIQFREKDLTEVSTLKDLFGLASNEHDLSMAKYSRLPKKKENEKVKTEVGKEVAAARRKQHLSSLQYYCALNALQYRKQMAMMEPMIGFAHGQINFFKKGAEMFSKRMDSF

[6] = biological target: T2, BAR2-YFP (C-terminal YFP fusion of the APPL2 minimal BAR domain, residues 18-225) (human); assay: FRET or BRET; comparison of pre-bleach and post-bleach emission spectra (lambda mode, same detector gain) in the bleached region; CFP donor and YFP acceptor co-expressed in DLD-1 cells, fixed
[7] = biological target: T2, BAR2-YFP (C-terminal YFP fusion of the APPL2 minimal BAR domain, residues 18-225) (human); assay: FRET or BRET; standard acceptor photobleaching (pre-bleach against final image after 19 bleach exposures, FRET efficiency %); CFP donor and YFP acceptor co-expressed in DLD-1 cells, fixed
[8] = biological target: T2, BAR2-YFP (C-terminal YFP fusion of the APPL2 minimal BAR domain, residues 18-225) (human); assay: FRET or BRET; sequential acceptor photobleaching (20 images, linear regression to 100% YFP bleached); CFP donor and YFP acceptor co-expressed in DLD-1 cells, fixed

Measured: binding

B1: CFP-BAR1 (N-terminal CFP fusion of the APPL1 minimal BAR domain, residues 18-226) (domain or fragment, UniProt Q9UKG1 18-226)
chain: QTRSLLGVFEEDATAISNYMNQLYQAMHRIYDAQNELSAATHLTSKLLKEYEKQRFPLGGDDEVMSSTLQQFSKVIDELSSCHAVLSTQLADAMMFPITQFKERDLKEILTLKEVFQIASNDHDAAINRYSRLSKKRENDKVKYEVTEDVYTSRKKQHQTMMHYFCALNTLQYKKKIALLEPLLGYMQAQISFFKMGSENLNEQLEEFL
binds: [1] | [2] | [3] | [4]

B2: CFP-BAR2 (N-terminal CFP fusion of the APPL2 minimal BAR domain, residues 18-225) (domain or fragment, UniProt Q8NEU8 18-225)
chain: QTRSLLSVFEEDAGTLTDYTNQLLQAMQRVYGAQNEMCLATQQLSKQLLAYEKQNFALGKGDEEVISTLHYFSKVVDELNLLHTELAKQLADTMVLPIIQFREKDLTEVSTLKDLFGLASNEHDLSMAKYSRLPKKKENEKVKTEVGKEVAAARRKQHLSSLQYYCALNALQYRKQMAMMEPMIGFAHGQINFFKKGAEMFSKRMDSF
binds: [5] | [6] | [7] | [8]
